From PubChem BioAssay AID504834 (National Center for Advancing Translational Sciences (NCATS), 2011)
In all, about 320,000 compounds went through this assay and about 22,000 (6.9%) were called active. Inconclusive means that the source gave no clear call. Such entries were picked first, then a sample of the others. The call rests on the fitted dose curve; in most records, active means well fitted inhibition curve with a large enough effect; inconclusive means small, poorly fitted or top-dose-only effect, or another doubt; inactive means no such curve, though single readings can be large or run the other way. Potencies of inconclusive entries are doubtful fits and often do not repeat.

Assay: Primary qHTS for delayed death inhibitors of the malarial parasite plastid, 96 hour incubation
Settings: P. falciparum luciferase reporter growth; series mostly up to 28.7 µM; activity change, negative = inhibition: at the top concentration
Outline: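 Parasite growth measured via integrated firefly luciferase reporter in P. falciparum. Infected erythrocytes at 2% hematocrit, 0.05% parasitemia final were treated 96 hours at 37 C under 5% CO2, and luminescence was read.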
On the % scale 0 is the no-effect control and ±100 the full control effect; potency means the concentration at half of the fitted maximal effect.

Compound | Potency | activity change, negative = inhibition
Nc1c(C(=O)CSc2nnnn2-c2ccc(O)cc2)c(=O)[nH]c(=O)n1C1CC1 | inconclusive: 2.08 µM [inhibitor, full curve, poor fit] | 
CCC(CC)CN1C(N(C)C)=NC[C@@H]1CC(C)C | active: 8.28 µM | 
COCCNC(=O)CCC(=O)NNc1nc2ccccc2c2nc(C)nn12 | inconclusive: 18.5 µM [inhibitor, single point] | 
CCc1cccc(NS(=O)(=O)c2c(C)nc3scc(C)n3c2=O)c1 | inconclusive: 4.65 µM [inhibitor, partial curve] | 
COc1ccccc1N(C(=O)c1ccco1)C(C(=O)NC1CCCCC1)c1cc(OC)c(OC)c(OC)c1 (configuration not stated) | inconclusive: 10.4 µM [inhibitor, single point] | 
CCN(CC)S(=O)(=O)c1ccc(N2CCCCC2)c(NC(=O)/C(C#N)=C/c2ccc(OC)cc2)c1 | active: 11.7 µM | 
COc1cccc(NC(=O)Nc2nccc(C)n2)c1 |  | inactive: 11.6%
Cc1ccc(Cn2cc(S(=O)(=O)c3ccc(Cl)cc3)c(=O)c3cc(F)ccc32)cc1 | inconclusive: 9.28 µM [inhibitor, single point] | 
O=C1CC(N2CC=C(c3ccccc3)CC2)C(=O)N1c1ccc(F)cc1 (configuration not stated) | inconclusive: 18.5 µM [inhibitor, single point] | 
O=C(Oc1cc(-c2ccccc2)no1)c1cccc(C(F)(F)F)c1 |  | inactive: 28.6%
O=c1[nH]c(=O)n(Cc2ccc(F)cc2)c(O)c1C=NCC1CCCO1 (configuration not stated) |  | inactive: 119%
COc1cccc(NC(=O)Cn2nnc(C(=O)NCc3cccs3)c2N)c1 | inconclusive: 11.7 µM [inhibitor, single point] | 
COC(=O)c1sc(N)c(C(=O)OC)c1COC(=O)[C@@H](NS(=O)(=O)c1cccc(Cl)c1)C(C)C | inconclusive: 14.7 µM [inhibitor, single point] | 
O=C1NC(=Nc2cccc(O)c2)S/C1=C\c1cccc([N+](=O)[O-])c1 | inconclusive: 13.1 µM [inhibitor, partial curve] | 
Cc1ccc(CCNS(=O)(=O)c2c(C)nc3sccn3c2=O)cc1 | inconclusive: 2.94 µM [inhibitor, partial curve] | 
CCOC(=O)c1cnn2cc(-c3[nH]ncc3[N+](=O)[O-])cnc12 |  | inactive: 37.3%
O=C(c1ccc(Cl)cc1)n1cnc2ccccc21 | inconclusive: 11.7 µM [inhibitor, partial curve] | 
CC(=O)Nc1ccc(-n2c(C)ccc2C)cc1 |  | inactive: -7.54%
CCCSC1=C(C#N)C(c2ccc(OC)cc2)C2=C(CC(C)(C)CC2=O)N1 (configuration not stated) | inconclusive: 18.5 µM [inhibitor, single point] | 
Cc1cc(C(=O)NNC(=O)Nc2cccc(C(F)(F)F)c2)no1 | inconclusive: 11.7 µM [inhibitor, single point] | 
C=CCn1c(Cc2csc(N)n2)nnc1SCC(=O)Nc1ccccc1C(F)(F)F | inconclusive: 14.7 µM [inhibitor, single point] | 
CC(C)(C)[C@H]1C=C(C(=O)NC2CC2)O[C@@H](OCCCCO)C1 | inconclusive: 14.7 µM [inhibitor, partial curve, poor fit] | 
c1ccc2c(c1)CCN(C1=Nc3cccc4cccc1c34)C2 | inconclusive: 1.65 µM [inhibitor, full curve] | 
Cc1cc(NC(=O)c2cc(-c3ccc(Br)cc3)on2)no1 |  | inactive: -19.6%

Compound | Potency | activity change, negative = inhibition
CCOC(=O)c1csc(NC(=O)CC2CCCC2)n1 |  | inactive: -5.84%
CC1Cc2cc(S(=O)(=O)N3CCC(C(N)=O)CC3)ccc2N1C(=O)C1CC1 (configuration not stated) | active: 11.7 µM | 
COc1ccc(N(C(=O)c2cnccn2)C(C(=O)NC2CCCCC2)c2ccc(O)cc2)cc1 (configuration not stated) | inconclusive: 18.5 µM [inhibitor, single point] | 
Cc1ccc(S(=O)(=O)N(C)C)cc1-n1c(SCC(=O)Nc2ccc(F)cc2)nc2ccccc2c1=O | active: 9.28 µM | 
O=c1cc(CN2CCN(c3ccc(O)cc3)CC2)nc2scc(-c3ccccc3)n12 | inconclusive: 18.5 µM [inhibitor, single point] | 
CCOC(=O)C1CCCN(c2c(NCCc3ccc(C)cc3)c(=O)c2=O)C1 (configuration not stated) |  | inactive: -24.9%
COc1ccc(OCC(O)Cn2c(N3CCCCC3)nc3c2c(=O)n(C)c(=O)n3C)cc1 (configuration not stated) | inconclusive: 9.28 µM [inhibitor, single point] | 
CC1(c2ccc3ccccc3c2)NC(=O)N(CC(=O)N2CCN(c3ccccc3O)CC2)C1=O (configuration not stated) | inconclusive: 10.4 µM [inhibitor, single point] | 
O=C1C(=O)N(c2ccccn2)C(c2cccc([N+](=O)[O-])c2)/C1=C(/O)c1ccc(Br)cc1 (configuration not stated) | inconclusive: 4.15 µM [inhibitor, single point] | 
CC1CN(C(=O)c2ccc3c(c2)OCO3)CC(C)O1 (configuration not stated) |  | inactive: -15.9%
Cc1ccc(O)c(C(=O)c2cnc(/N=C(\N)N(C)C)nc2)c1 |  | inactive: 19%
COCC(C)NC(=O)C1CC(=O)N(c2ccc(C)cc2)C1 (configuration not stated) | inconclusive: 0.131 µM [inhibitor, full curve, poor fit] | 
CCS(=O)(=O)c1ccc(C(=O)Nc2ccccc2OC)c(Cl)c1Cl |  | inactive: -14.4%
Cc1ccccc1-c1nc(CS(=O)CC(=O)NC(C)CCc2ccccc2)c(C)o1 (configuration not stated) | inconclusive: 13.1 µM [inhibitor, partial curve] | 
O=C(O)/C=C/c1cnc2ccccc2n1 |  | inactive: -22.1%
CN(C(=O)COC(=O)c1cc(-c2ccc(Cl)s2)nc2ccccc12)C1CCS(=O)(=O)C1 (configuration not stated) |  | inactive: -28.3%
O=C(CN1CCCC1)Nc1sc2c(c1C(=O)Nc1ccccc1)CCCC2 | inconclusive: 11.7 µM [inhibitor, single point] | 
Cc1ccc(NC(=O)/C=C/c2ccco2)nc1 |  | inactive: -26.2%
O=C(Cc1ccccc1)Oc1coc(CSc2ncccn2)cc1=O |  | inactive: 11.2%
CCOCCc1c(O)nc(SCCOc2ccc(C)c(C)c2)[nH]c1=O |  | inactive: -4.2%
COc1ccc(OCC(O)CN(C2CCCCC2)C2CCCCC2)cc1 (configuration not stated) | active: 5.86 µM | 
NC(=O)c1ccc(NC(=O)CCC(=O)N2CCN(S(=O)(=O)c3ccc(Cl)cc3)CC2)cc1 | inconclusive: 4.15 µM [inhibitor, single point] | 
COc1ccc2c(c1OC)C(=O)N1N=C(c3ccc(Cl)cc3)CC21 (configuration not stated) |  | inactive: -16.2%
C#CCOCCOCCOCCNc1nc(N2CCN(C(=O)CCCCCCCCCCNC(=O)Cn3cc(CCCCCN)nn3)CC2)nc(N2CCN(C(=O)CCCCCCCCCCNC(=O)[C@H]([C@@H](C)CC)n3cc(CCCCCN)nn3)CC2)n1 | inconclusive: 1.85 µM [inhibitor, partial curve] | 

A section from the list above, as a working copy:
Compound | Potency | activity change, negative = inhibition
COCC(C)NC(=O)C1CC(=O)N(c2ccc(C)cc2)C1 (configuration not stated) | inconclusive: 0.131 µM [inhibitor, full curve, poor fit] | 
CCS(=O)(=O)c1ccc(C(=O)Nc2ccccc2OC)c(Cl)c1Cl |  | inactive: -14.4%
Cc1ccccc1-c1nc(CS(=O)CC(=O)NC(C)CCc2ccccc2)c(C)o1 (configuration not stated) | inconclusive: 13.1 µM [inhibitor, partial curve] | 

The listing continues:

Compound | Potency | activity change, negative = inhibition
CCOC(=O)CN1C(=O)COc2ccc(C(C)(C)C)cc21 | active: 0.465 µM | 
O=C(NCCCO)c1cc2c([nH]c3ccccc32)c(-c2ccccc2)n1 | active: 5.86 µM | 
COc1ccccc1-c1nn2c(-c3ccco3)nnc2s1 | inconclusive: 18.5 µM [inhibitor, single point] | 
CC(=O)Nc1cccc(NC(=O)CSc2nc3ccccc3o2)c1 | inconclusive: 5.22 µM [inhibitor, partial curve, poor fit] | 
COc1ccccc1-n1nnnc1S(=O)(=O)Cc1ccc(Cl)cc1 | inconclusive: 18.5 µM [inhibitor, single point] | 
COc1ccccc1N1CCN(c2nccc(C)n2)CC1 |  | inactive: 1.7%
CCCCOc1cccc(C(=O)Nc2ccccc2N2CCCC2)c1 | inconclusive: 2.62 µM [inhibitor, full curve] | 
O=C(CN1C(=O)COc2ccccc21)c1cccc(Cl)c1 | inconclusive: 9.28 µM [inhibitor, single point] | 
COc1ccc(CN(C)C(=O)c2ccc(Oc3ccccc3)cc2)cc1F |  | inactive: 0.959%
O=C(COc1ccccc1)Nc1cccc2nsnc12 |  | inactive: -14.3%
NNC(=O)c1ccccc1OCc1ccccc1 | inconclusive: 16.5 µM [inhibitor, single point] | 
O=C(NC1CCCC1)C(c1ccccc1)N(Cc1ccccc1)C(=O)c1csnn1 (configuration not stated) | inconclusive: 10.4 µM [inhibitor, partial curve, poor fit] | 
Nc1nnnn1CC(=O)N/N=C/c1cc([N+](=O)[O-])ccc1Cl | inconclusive: 4.15 µM [inhibitor, single point] | 
O=C(OCC(=O)N1CCOCC1)c1ccc2ccccc2c1 |  | inactive: 35.2%
CC(C)C(NC(=O)/C(=C/c1ccco1)NC(=O)c1ccc(Br)o1)C(=O)O (configuration not stated) |  | inactive: 48.1%
CC(OC(=O)c1ccccc1Oc1ccccc1)C(=O)NC1CC1 (configuration not stated) | inconclusive: 8.28 µM [inhibitor, partial curve] | 
CC(C)NC(=O)C1CCN(C2CCN(Cc3nc(C(C)C)cs3)CC2)CC1 | inconclusive: 13.1 µM [inhibitor, single point] | 
Cc1cccc(-n2c(SCC(=O)N3CCN(c4ccccn4)CC3)nnc2N2CCOCC2)c1 | inconclusive: 13.1 µM [inhibitor, partial curve] | 
COC(=O)CN1C(=O)Nc2ccc(Cl)cc2C1c1ccccc1 (configuration not stated) |  | inactive: 20.1%
COC(=O)NNC(=S)Nc1ccc(Br)cc1 | inconclusive: 1.47 µM [inhibitor, full curve] | 
CCCSc1nc(N)c2c3c(sc2n1)CN(C)CC3 | inconclusive: 1.31 µM [inhibitor, full curve] | 
Cc1noc(C)c1COC(=O)CCCc1c[nH]c2ccccc12 | inconclusive: 13.1 µM [inhibitor, single point] | 
CCN1CCN(c2cc(C)c3cc(NC(=O)c4cccs4)ccc3n2)CC1 | inconclusive: 4.15 µM [inhibitor, single point] | 
Cc1cccc(NS(=O)(=O)c2c(C)noc2C)c1 |  | inactive: -15.1%
